Results: PubChem BioAssay AID1439 (NMMLSC, 2008)
The whole screen tested about 220,000 compounds, of which about 770 (0.35%) were called active. This list was built around the results that the source calls inconclusive (neither active nor inactive); the mix of calls is not that of the screen. Cut-off read from the data, not from the text of the source: active = binding response below about 49% or above about 150%; inconclusive = no clear call, values can overlap the other calls; inactive = in between.

Protein sequences, listed by entry. Tags and fused reporters are not part of them.
UniProt P09471, whole entry, looked up: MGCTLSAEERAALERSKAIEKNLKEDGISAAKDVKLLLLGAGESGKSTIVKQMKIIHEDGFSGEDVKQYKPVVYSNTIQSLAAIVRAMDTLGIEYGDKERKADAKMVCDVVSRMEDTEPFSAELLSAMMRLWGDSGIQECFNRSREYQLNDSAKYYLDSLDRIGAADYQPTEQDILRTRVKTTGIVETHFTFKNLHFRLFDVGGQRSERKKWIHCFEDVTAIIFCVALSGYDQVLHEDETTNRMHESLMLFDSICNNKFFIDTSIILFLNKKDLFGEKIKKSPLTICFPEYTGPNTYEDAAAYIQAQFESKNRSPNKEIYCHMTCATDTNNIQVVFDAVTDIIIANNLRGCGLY

target: Guanine nucleotide-binding protein G(o) subunit alpha (Homo sapiens) (UniProt P09471); assay: RGS7-Galphao binding modulators, primary screen, biochemical, multiplexed bead flow cytometry (AID 1439); conditions: at 10 µM, actives lie on both sides;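 note: fluorescent Galphao held in activated GDP-AlF4 state binding bead-coupled RGS7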

Structure (SMILES)	binding response (% of control)
COC(=O)c1sc(NC(=O)c2ccco2)c(C#N)c1C	inconclusive: 112%
COC(=O)c1ccc(NC(=S)NC2CCc3ccccc32)cc1 (stereo unspecified)	inactive: 104%
CC12CN3CC(C)(CN(C1)C3c1ccccc1F)C2 (stereo unspecified)	inconclusive: 42.8%
O=c1[nH][nH]c2cc(=O)n(-c3ccc(Cl)cc3)nc12	inactive: 99.3%
COc1cccc(CN(C)Cc2nc3cc(C(F)(F)F)ccc3c(=O)[nH]2)c1	inconclusive: -27.2%
COc1cc(/C=N/N(C)c2ccccc2)ccc1O	inactive: 98.3%
COc1cccc(CNC(=O)N[C@@H](C)C(=O)O)c1	inconclusive: 132%
OCC1(Cc2cccc(Cl)c2)CCCN(Cc2cnn(-c3ccccc3)c2)C1 (stereo unspecified)	inactive: 101%
COc1ccc(C(=O)NC2CCN(C(=S)Nc3ccc(C)cc3)CC2)cc1	inactive: 94.5%
COC(=O)CNC(=O)c1ccc(NS(=O)(=O)c2cc([N+](=O)[O-])ccc2Cl)cc1	inconclusive: 166%
Cc1cccc(N2CCN(S(=O)(=O)c3cccc4nonc34)CC2)c1C	inactive: 102%
O=C(Nc1ccc(F)cc1F)N1CCCN(CCOc2ccccc2)CC1	inconclusive: 90.9%
Cc1ccc(CN2CCSc3ccc(C(=O)NCc4cccnc4)cc32)cc1	inconclusive: 83.2%
CC(=O)Nc1ccc2c(c1)C(=O)c1ccccc1C2=O	inactive: 114%
O=C(NCCC1=CCCCC1)C(=O)NCCc1ccc(Cl)cc1	inconclusive: 88.8%
Cc1ccc(S(=O)(=O)N2CCCOC2CNC(=O)C(=O)NCc2ccncc2)cc1 (stereo unspecified)	inactive: 105%
COCCNCC1C(Oc2ccc(Cl)cc2)C(=O)N1c1ccccc1C (stereo unspecified)	inactive: 98.4%
CN(C)c1cccc2c1c(NC(=O)c1ccc(Cl)cc1)nn2C	inconclusive: 119%
COc1ccc2c(C(=O)CN3CCSCC3)c[nH]c2c1	inconclusive: 251%
CCOC(=O)Cc1c(C)[nH]n(-c2ccccc2)c1=O	inconclusive: 80%
CC(C)c1ccc(N(CC(=O)NN=C2CCN(C)CC2)S(=O)(=O)c2ccccc2)cc1	inactive: 118%
CCCCN(C)C(=O)Cn1cnc2sc(C)cc2c1=O	active: 155% [activator]
O=c1[nH]c(=S)n(-c2cccc(Cl)c2)c(O)c1/C=N/N1CCOCC1	inconclusive: 95.6%
CC1Cc2cc(/C(O)=C3/C(=O)C(=O)N(CCN4CCOCC4)C3c3ccc(C(C)C)cc3)ccc2O1 (stereo unspecified)	inconclusive: 126%
CC1=NN(C(N)=S)C(=O)C1N=Nc1cccc(C)c1 (stereo unspecified)	inconclusive: 131%
Cc1ccc(C(=O)OCC(=O)NC(=O)c2cccn2C)cc1[N+](=O)[O-]	inconclusive: 58.2%
